The target of one experiment is T1, 人源B7H3(细胞表面表达) (human) (UniProt Q5ZPR3).
T1 sequence (looked up): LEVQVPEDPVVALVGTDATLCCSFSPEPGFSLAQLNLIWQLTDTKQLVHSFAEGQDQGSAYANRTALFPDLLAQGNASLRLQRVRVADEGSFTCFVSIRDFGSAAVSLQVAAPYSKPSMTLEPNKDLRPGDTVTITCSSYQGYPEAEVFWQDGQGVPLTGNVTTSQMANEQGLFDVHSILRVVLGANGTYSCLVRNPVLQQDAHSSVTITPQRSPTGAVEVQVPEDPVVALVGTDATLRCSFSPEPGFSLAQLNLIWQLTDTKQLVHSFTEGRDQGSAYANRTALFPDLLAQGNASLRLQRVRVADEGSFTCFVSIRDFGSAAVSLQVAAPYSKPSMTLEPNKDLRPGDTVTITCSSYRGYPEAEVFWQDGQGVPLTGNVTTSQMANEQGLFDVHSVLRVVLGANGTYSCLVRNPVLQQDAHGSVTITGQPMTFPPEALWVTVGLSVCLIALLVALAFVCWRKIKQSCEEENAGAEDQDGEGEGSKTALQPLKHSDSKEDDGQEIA
As to the kind of experiment: flow cytometry on CHO cells stably expressing B7H3. (A flow cytometer gives signals particle by particle.)

For a further experiment, the target named is T2, B7H3-His重组蛋白 (human) (UniProt Q5ZPR3).
T2 sequence (looked up): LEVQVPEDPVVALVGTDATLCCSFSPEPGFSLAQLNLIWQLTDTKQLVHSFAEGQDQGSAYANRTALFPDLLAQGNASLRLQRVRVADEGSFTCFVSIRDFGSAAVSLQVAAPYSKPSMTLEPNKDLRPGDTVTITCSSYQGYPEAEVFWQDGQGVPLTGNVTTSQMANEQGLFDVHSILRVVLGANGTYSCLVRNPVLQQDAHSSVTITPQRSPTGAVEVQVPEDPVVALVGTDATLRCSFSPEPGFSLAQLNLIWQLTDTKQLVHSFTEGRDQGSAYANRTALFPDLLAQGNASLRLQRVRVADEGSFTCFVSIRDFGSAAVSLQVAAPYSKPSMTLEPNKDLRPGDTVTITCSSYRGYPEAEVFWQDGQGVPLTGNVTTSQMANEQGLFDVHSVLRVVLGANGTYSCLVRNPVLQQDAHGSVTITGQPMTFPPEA
As to the kind of experiment: SPR (Biacore), B7H3-His amine-coupled to CM5 chip, antibody as analyte. (Surface plasmon resonance follows binding to a sensor surface in real time, without labels.)

These are yes or no findings as the source states them, for the method shown. Some binding calls cover weakened binding; strength is not graded here. For some assays here: Where a sequence is shown, tags or fusion partners need not be part of it.

B1: 人源化单抗huJ65-1 (antibody, V domains shown)
VH: EVQLVESGGGLVQPGGSLRLSCAASGFTFSSHGMHWVRQAPGKGLEWVAVISGGGRYSYYADSVKGRFTISRDNAKNSLYLQMNSLRAEDTAVYYCARHWDGYLDYWGQGTLVTVSS
VL: DIQMTQSPSSLSASVGDRVTITCRASQNIYSYLAWYQQKPGKAPKLLIYNAKTLTEGVPSRFSGSGSGTDFTLTISSLQPEDFATYYCQQHHYGPPPYTFGQGTKVEIK
Regarding B1, the binding entry in the experiment with 人源B7H3(细胞表面表达) (human) and with B7H3-His重组蛋白 (human) was “binds” each time.

(Values after patent publication CN117024592A.)
